Experimental data taken from patent US20070042463A1.
No constants are given. Whether binding was seen depends on the method and setting. Some binding calls cover weakened binding; strength is not graded here.

Amino acid sequences for entries named in this document (tags omitted). A change or cut given only in a name is not applied to a line headed by its entry. Residues count along the entry.
UniProt Q8IUQ4: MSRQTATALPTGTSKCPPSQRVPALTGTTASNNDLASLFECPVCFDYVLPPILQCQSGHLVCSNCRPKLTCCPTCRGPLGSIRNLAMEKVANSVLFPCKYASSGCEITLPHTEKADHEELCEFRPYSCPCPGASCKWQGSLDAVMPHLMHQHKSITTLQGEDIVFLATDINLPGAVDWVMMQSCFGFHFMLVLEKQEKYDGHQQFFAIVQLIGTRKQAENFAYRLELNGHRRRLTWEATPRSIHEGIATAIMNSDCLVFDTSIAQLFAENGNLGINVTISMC
UniProt P25054, residues 2681-2843: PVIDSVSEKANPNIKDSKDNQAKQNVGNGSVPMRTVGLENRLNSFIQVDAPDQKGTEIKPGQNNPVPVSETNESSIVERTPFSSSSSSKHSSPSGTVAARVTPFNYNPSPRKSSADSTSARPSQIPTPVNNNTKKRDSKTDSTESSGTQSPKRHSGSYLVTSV

Assays:
Siah-1 (human) [1] = target: T1, Siah-1 (human) (UniProt Q8IUQ4); experiment: yeast two-hybrid; LexA-APC(2681-2843) with B42-Siah-1; β-galactosidase filter assay
T1 sequence: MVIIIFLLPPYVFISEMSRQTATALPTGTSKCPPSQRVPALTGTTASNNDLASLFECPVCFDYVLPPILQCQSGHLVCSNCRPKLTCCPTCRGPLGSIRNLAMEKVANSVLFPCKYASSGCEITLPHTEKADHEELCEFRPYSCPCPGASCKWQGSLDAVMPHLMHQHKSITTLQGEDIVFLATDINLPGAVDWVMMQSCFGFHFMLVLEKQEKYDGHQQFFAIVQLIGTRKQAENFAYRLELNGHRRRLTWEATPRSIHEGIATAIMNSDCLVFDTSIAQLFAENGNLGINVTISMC

Siah-1 (human) [2] = target: T1, Siah-1 (human); experiment: yeast two-hybrid
Siah-1 (human) [3] = target: T1, Siah-1 (human); experiment: yeast two-hybrid; LexA-APC(2681-2843) with B42-Siah-1; growth on leucine-deficient media (Leu+)

Measured: binding

APC (2681-2843) (from UniProt P25054 2681-2843)
binds: all assays above
